The values that follow come from PubChem BioAssay AID256 (DTP/NCI, 2004).

Structures are written as SMILES. The list does not hold the whole screen: it gathers tests that were run many times, whatever their T/C, doses with no T/C, and many T/C values between a quarter and a half above the control. Further doses and runs are listed elsewhere. T/C: endpoint of the treated group in % of that of the vehicle group. Some entries give survivors of the animals treated and no T/C: the source files T/C as zero there, which appears to mark a toxic dose or a test without result, not a measured value. Some survivor counts are full or nearly so, which does not show that the dose was tolerated: survival well below the control is almost never listed, so the zero probably covers shortened survival too. Survivors were counted at the toxicity check, usually on the fifth day, unless a day is given; later deaths do not show. Schedule codes are those of the source, taken here to give the interval after Q, in days (D) or hours (H), and the number of doses after X. Some entries were tested several times; the values are given in rising order. Where survival is the endpoint, this PubChem deposit counts one and a half times the control or more as active, and values a quarter to a half above the control carry no call in these data; other NCI protocols may use other cut-offs. Some T/C values carry the count of animals alive at the toxicity check (mostly the fifth day); without a count, all were alive then.

The test deals with CD2F1 mice, L1210 leukemia ip, survival T/C. The experiment in a line: NCI In Vivo Anticancer Drug Screen. Data for tumor model L1210 Leukemia (intraperitoneal) in CD2F1 (CDF1) mice. To be noted: higher T/C = longer survival. The method, boiled down:
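Ratio T/C, where T is the treated-group value and C the vehicle-dosed control value, from mice implanted with a transplantable tumor.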

[1] abbreviates: T/C endpoint: mean survival time, dose: 25.0 mg/kg/injection, schedule: Q01DX009 (ip), vehicle: saline with Tween-80.
Where [2] appears, read: T/C endpoint: mean survival time, dose: 50.0 mg/kg/injection, schedule: Q01DX009 (ip), vehicle: saline with Tween-80.
The mark [3] stands for this setting: T/C endpoint: mean survival time, dose: 100.0 mg/kg/injection, schedule: Q01DX009 (ip), vehicle: saline with Tween-80.
The mark [4] stands for this setting: T/C endpoint: median survival time, dose: 800.0 mg/kg/injection, schedule: Q01DX009 (ip), vehicle: saline with Tween-80.
[5] abbreviates: T/C endpoint: mean survival time, dose: 100.0 mg/kg/injection, schedule: Q04DX003 (ip), vehicle: saline with Tween-80.
[6] abbreviates: T/C endpoint: mean survival time, dose: 200.0 mg/kg/injection, schedule: Q04DX003 (ip), vehicle: saline with Tween-80.
Where [7] appears, read: T/C endpoint: mean survival time, dose: 400.0 mg/kg/injection, schedule: Q04DX003 (ip), vehicle: saline with Tween-80.
[8] abbreviates: T/C endpoint: mean survival time, dose: 200.0 mg/kg/injection, schedule: Q01DX009 (ip), vehicle: saline.

Consider `O=C(NC1CCCCC1)OCc1c(COC(=O)NC2CCCCC2)c(-c2ccc(Cl)c(Cl)c2)n2c1CCC2`, for which the T/C runs as follows: under setting [1], 130 % of control; under setting [2], 133 and 137 % of control; under setting [3], 142 % of control.

As to `O=c1[nH]cccc1O`, the T/C runs as follows: (T/C endpoint: median survival time, dose: 100.0 mg/kg/injection, schedule: Q01DX009 (ip), vehicle: saline with Tween-80) 100, 102, 103, 113 % of control; (T/C endpoint: median survival time, dose: 200.0 mg/kg/injection, schedule: Q01DX009 (ip), vehicle: saline with Tween-80) 111, 112, 116 [5 of 6 alive], 138 % of control; (T/C endpoint: median survival time, dose: 400.0 mg/kg/injection, schedule: Q01DX009 (ip), vehicle: saline with Tween-80) 111 [4 of 6 alive], 122, 143 [5 of 6 alive], 149 % of control; (T/C endpoint: median survival time, dose: 500.0 mg/kg/injection, schedule: Q01DX009 (ip), vehicle: saline with Tween-80) 139 % of control; under setting [4], 159 % of control [5 of 6 alive]. The survivor count was 0 of 6 (T/C endpoint: median survival time, dose: 532.0 mg/kg/injection, schedule: Q03HX027 (ip), vehicle: saline with Tween-80); 0 of 6 and 1 of 6 under setting [4]; 2 of 6 (T/C endpoint: median survival time, dose: 1000.0 mg/kg/injection, schedule: Q01DX009 (ip), vehicle: saline with Tween-80).

Take `CN[C@H]1CCc2cc(OC)c(OC)c(OC)c2-c2ccc(OC)c(=O)cc21`: the T/C reads like this: (T/C endpoint: mean survival time, dose: 5.0 mg/kg/injection, schedule: Q01DX009 (ip), vehicle: saline) 125 and 144 % of control; (T/C endpoint: mean survival time, dose: 5.0 mg/kg/injection, schedule: Q01DX009 (ip), vehicle: water) 126 % of control; (T/C endpoint: mean survival time, dose: 10.0 mg/kg/injection, schedule: Q01DX007 (ip), vehicle: saline) 130 % of control; (T/C endpoint: mean survival time, dose: 10.0 mg/kg/injection, schedule: Q01DX009 (ip), vehicle: saline) 130 % of control; (T/C endpoint: mean survival time, dose: 10.0 mg/kg/injection, schedule: Q03DX003 (ip), vehicle: saline) 125 % of control; (T/C endpoint: median survival time, dose: 5.0 mg/kg/injection, schedule: Q01DX009 (ip), vehicle: saline) 127 % of control. Besides, the survivor count runs as follows: (T/C endpoint: mean survival time, dose: 40.0 mg/kg/injection, schedule: Q01DX009 (ip), vehicle: saline) 6 of 6; (T/C endpoint: mean survival time, dose: 60.0 mg/kg/injection, schedule: Q01DX009 (ip), vehicle: saline) 5 of 6.

On to `[Cl][Sn]([Cl])([c]1ccccc1)[c]1ccccc1`, for which the survivor count by setting is: (T/C endpoint: mean survival time, dose: 100.0 mg/kg/injection, schedule: Q01DX001 (ip), vehicle: saline) 0 of 3; (T/C endpoint: mean survival time, dose: 200.0 mg/kg/injection, schedule: Q01DX001 (ip), vehicle: saline) 0 of 3; (T/C endpoint: mean survival time, dose: 400.0 mg/kg/injection, schedule: Q01DX001 (ip), vehicle: saline) 0 of 3.

Regarding `Cc1ncnc2c1ncn2C1OC(CO)C(O)C1O` (centres undefined), the T/C (T/C endpoint: mean survival time, dose: 2.0 mg/kg/injection, schedule: Q01DX005 (ip), vehicle: saline) was 125 % of control. The survivor count (T/C endpoint: mean survival time, dose: 8.0 mg/kg/injection, schedule: Q01DX005 (ip), vehicle: saline) is 4 of 6.

For `CN(C)C=Nc1ccc(Cl)c(Cl)c1`, under “T/C endpoint: mean survival time, dose: 100.0 mg/kg/injection, schedule: Q04DX003 (ip), vehicle: saline”, the survivor count is listed as 4 of 6.

Consider `CC(=O)OCC1OC(n2ncnc2CBr)C(OC(C)=O)C(OC(C)=O)C1OC(C)=O` (centres undefined), for which the survivor count runs as follows: (T/C endpoint: median survival time, dose: 100.0 mg/kg/injection, schedule: Q01DX005 (ip), vehicle: distilled water + Tween-80) 0 of 6; (T/C endpoint: median survival time, dose: 200.0 mg/kg/injection, schedule: Q01DX005 (ip), vehicle: distilled water + Tween-80) 0 of 6.

Regarding `C(=C\c1ccccc1)/C[P+](c1ccccc1)(c1ccccc1)c1ccccc1`, the survivor count was 0 of 6 under setting [5], 0 of 6 under setting [6] and 0 of 6 under setting [7].

`CCCCCCCCC(=O)OCC1OC(n2cnc3c(N)nc(Cl)nc32)CC1O` (centres undefined): where the note is “T/C endpoint: median survival time, dose: 25.0 mg/kg/injection, schedule: Q01DX009 (ip), vehicle: saline with Tween-80”, the T/C was 141 % of control.

As for `CC[n+]1ccc(Cc2ccc([N+](=O)[O-])cc2)cc1`, the survivor count runs as follows: (T/C endpoint: mean survival time, dose: 200.0 mg/kg/injection, schedule: Q04DX003 (ip), vehicle: Klucel (hydroxypropylcellulose) (HPC)) 3 of 6; (T/C endpoint: mean survival time, dose: 400.0 mg/kg/injection, schedule: Q04DX003 (ip), vehicle: Klucel (hydroxypropylcellulose) (HPC)) 0 of 6.

Take `O=C(O)CCC(=O)c1ccc2c(c1)CCCC2`: the survivor count by setting is: (T/C endpoint: median survival time, dose: 25.0 mg/kg/injection, schedule: Q04DX002 (ip), vehicle: saline with Tween-80) 3 of 3; (T/C endpoint: median survival time, dose: 50.0 mg/kg/injection, schedule: Q04DX002 (ip), vehicle: saline with Tween-80) 3 of 3; (T/C endpoint: median survival time, dose: 100.0 mg/kg/injection, schedule: Q04DX002 (ip), vehicle: saline with Tween-80) 3 of 3; (T/C endpoint: median survival time, dose: 200.0 mg/kg/injection, schedule: Q04DX002 (ip), vehicle: saline with Tween-80) 3 of 3.

`CN(CO)c1nc(N(C)CO)nc(N(C)CO)n1`: the T/C was 126 % of control (T/C endpoint: mean survival time, dose: 100.0 mg/kg/injection, schedule: Q01DX009 (ip), vehicle: saline) and 129 % of control under setting [8]. For the same compound, the survivor count runs as follows: under setting [8], 6 of 6; (T/C endpoint: mean survival time, dose: 400.0 mg/kg/injection, schedule: Q01DX009 (ip), vehicle: saline) 1 of 6.

Consider `CN(C)Cc1cc(CN(C)C)c(O)c(CN(C)C)c1`, for which, where the note is “T/C endpoint: mean survival time, dose: 400.0 mg/kg/injection, schedule: Q04DX003 (ip), vehicle: saline”, the survivor count is reported as 3 of 6.

As to `COc1ccc([I+]c2ccc(OC)cc2)cc1`, the survivor count by setting is: (T/C endpoint: mean survival time, dose: 12.5 mg/kg/injection, schedule: Q01DX009 (ip), vehicle: saline with Tween-80) 4 of 6; under setting [1], 5 of 6; under setting [2], 1 of 6.

On to `CCN(CC)CCCC(C)Nc1cc(C)nc(Nc2nc3cc(Cl)c(Cl)cc3[nH]2)n1` (centres undefined), for which the survivor count runs as follows: under setting [5], 0 of 6; under setting [6], 0 of 6; under setting [7], 0 of 6.

For the compound `Cc1ccc(NC(=S)NCCO)cc1C`, the survivor count reads like this: (T/C endpoint: mean survival time, dose: 200.0 mg/kg/injection, schedule: Q01DX009 (ip), vehicle: saline with Tween-80) 3 of 6; (T/C endpoint: mean survival time, dose: 400.0 mg/kg/injection, schedule: Q01DX009 (ip), vehicle: saline with Tween-80) 3 of 6.

As to `CC1(C)N=C(N)N=C(N)N1c1cccc(/C=C/C=C/c2cccc([N+](=O)[O-])c2)c1`, the survivor count is on record as 1 of 3 under setting [5], 0 of 3 under setting [6] and 0 of 3 under setting [7].

For the compound `CCOc1ccc(/C=C/c2ccc3ccccc3[n+]2C)cc1OCC`, the survivor count (T/C endpoint: mean survival time, dose: 50.0 mg/kg/injection, schedule: Q01DX001 (ip), vehicle: saline with Tween-80) is 0 of 6; the survivor count (T/C endpoint: mean survival time, dose: 100.0 mg/kg/injection, schedule: Q01DX001 (ip), vehicle: saline with Tween-80) is 0 of 6; the survivor count (T/C endpoint: mean survival time, dose: 200.0 mg/kg/injection, schedule: Q01DX001 (ip), vehicle: saline with Tween-80) is on record as 0 of 6.

On to `Cc1cn(C2CC3OP(O)(=S)OCC3O2)c(=O)[nH]c1=O` (centres undefined), for which the survivor count (T/C endpoint: mean survival time, dose: 140.0 mg/kg/injection, schedule: Q01DX005 (ip), vehicle: water) is given as 0 of 6.

Regarding `c1cc(C[N+]23CN4CN(CN(C4)C2)C3)cs1`, the survivor count runs as follows: under setting [6], 4 of 6; under setting [7], 0 of 6.

With `CC[N+]1(Cc2ccccc2)CC2(CCCCC2)ON2C1CC(C)C2(C)C` (centres undefined), the survivor count under setting [3] was 2 of 6.

As for `COC1C(O)CC(=O)OC(C)C/C=C/C=C/C(OC2CCC(N(C)C)C(C)O2)C(C)CC(CC=O)C1OC1OC(C)C(OC2CC(C)(O)C(O)C(C)O2)C(N(C)C)C1O` (centres undefined), the survivor count (T/C endpoint: mean survival time, dose: 800.0 mg/kg/injection, schedule: Q01DX001 (ip), vehicle: saline) is reported as 0 of 6.

As for `CN(C)c1nc(N)nc(-c2ccncc2)n1`, the survivor count is 0 of 3 (T/C endpoint: mean survival time, dose: 100.0 mg/kg/injection, schedule: Q01DX002 (ip), vehicle: saline with Tween-80); 0 of 3 (T/C endpoint: mean survival time, dose: 200.0 mg/kg/injection, schedule: Q01DX002 (ip), vehicle: saline with Tween-80); 0 of 3 (T/C endpoint: mean survival time, dose: 400.0 mg/kg/injection, schedule: Q01DX002 (ip), vehicle: saline with Tween-80).
